Measurements reported in PubChem BioAssay AID1259254 (NCATS, 2017)
Screen: 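Genome-wide screen for genes that prevent DNA re-replication in cancer cells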 (primary screen). Cell system: human HCT116 colorectal cancer cells. Reagents: single siRNA against human genes. Time to read-out: 3 days. Read-out: 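Nuclei stained with Hoechst and imaged; cell-cycle phase assigned by DNA content; G2 share scaled per plate, non-targeting siRNA 0%, GMNN siRNA 100%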. Direction: G2 robust z-score: higher = more G2 cells, more excess DNA replication. Rule for the call: 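An siRNA counts as active if its G2 robust z-score lies at least 5 MADs above the screen median; here such calls match roughly 38% of GMNN control or more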.
Here is one part, drawn at random, of about 59,000 reagents tested. Of all reagents, about 1,550 (2.6%) got an active call. 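G2 share is only a proxy for re-replication; each gene was hit by three separate siRNAs, and active genes were retested.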 The numbers tell different reagents against one gene apart. Further read-outs or replicates are left out here. No sequences are given here. Not stated in the record: the amount of reagent.

{"gene knocked down": "CNTN6 (contactin 6)", "reagent no.": 1, "G2 robust z-score": -0.611, "Call": "inactive"}
{"gene knocked down": "CNTN6 (contactin 6)", "reagent no.": 2, "G2 robust z-score": -0.462, "Call": "inactive"}
{"gene knocked down": "CNTN6 (contactin 6)", "reagent no.": 3, "G2 robust z-score": -0.0695, "Call": "inactive"}
{"gene knocked down": "NAP1L2 (nucleosome assembly protein 1 like 2)", "reagent no.": 1, "G2 robust z-score": 0.835, "Call": "inactive"}
{"gene knocked down": "NAP1L2 (nucleosome assembly protein 1 like 2)", "reagent no.": 2, "G2 robust z-score": 0.416, "Call": "inactive"}
{"gene knocked down": "NAP1L2 (nucleosome assembly protein 1 like 2)", "reagent no.": 3, "G2 robust z-score": 1.44, "Call": "inactive"}
{"gene knocked down": "GAPT (GRB2 binding adaptor protein, transmembrane)", "reagent no.": 1, "G2 robust z-score": -0.422, "Call": "inactive"}
{"gene knocked down": "GAPT (GRB2 binding adaptor protein, transmembrane)", "reagent no.": 2, "G2 robust z-score": 1.02, "Call": "inactive"}
{"gene knocked down": "GAPT (GRB2 binding adaptor protein, transmembrane)", "reagent no.": 3, "G2 robust z-score": 0.0885, "Call": "inactive"}
{"gene knocked down": "GABRR1 (gamma-aminobutyric acid type A receptor subunit rho1)", "reagent no.": 1, "G2 robust z-score": -0.968, "Call": "inactive"}
{"gene knocked down": "GABRR1 (gamma-aminobutyric acid type A receptor subunit rho1)", "reagent no.": 2, "G2 robust z-score": -0.318, "Call": "inactive"}
{"gene knocked down": "GABRR1 (gamma-aminobutyric acid type A receptor subunit rho1)", "reagent no.": 3, "G2 robust z-score": 1.62, "Call": "inactive"}
{"gene knocked down": "PABPC1L2B (poly(A) binding protein cytoplasmic 1 like 2B)", "reagent no.": 1, "G2 robust z-score": -0.706, "Call": "inactive"}
{"gene knocked down": "PABPC1L2B (poly(A) binding protein cytoplasmic 1 like 2B)", "reagent no.": 2, "G2 robust z-score": -0.57, "Call": "inactive"}
{"gene knocked down": "PABPC1L2B (poly(A) binding protein cytoplasmic 1 like 2B)", "reagent no.": 3, "G2 robust z-score": -0.371, "Call": "inactive"}
{"gene knocked down": "LRCH2", "reagent no.": 1, "G2 robust z-score": -0.218, "Call": "inactive"}
{"gene knocked down": "LRCH2", "reagent no.": 2, "G2 robust z-score": -0.27, "Call": "inactive"}
{"gene knocked down": "LRCH2", "reagent no.": 3, "G2 robust z-score": -0.458, "Call": "inactive"}

2 entries already listed, ordered by “G2 robust z-score”, high to low.
{"gene knocked down": "NAP1L2 (nucleosome assembly protein 1 like 2)", "reagent no.": 1, "G2 robust z-score": 0.835, "Call": "inactive"}
{"gene knocked down": "NAP1L2 (nucleosome assembly protein 1 like 2)", "reagent no.": 2, "G2 robust z-score": 0.416, "Call": "inactive"}
